Laboratory results from PubChem BioAssay AID1347431 (National Center for Advancing Translational Sciences (NCATS), 2020).
Out of some 1,200 compounds screened, fewer than 10 were called active. Calls follow the shape of the dose curve; as a rule, active = well fitted curve in the direction sought with a large enough effect; inconclusive = small, poorly fitted or top-dose-only effect, or another doubt; inactive = no such curve, though single readings can be large or run the other way. The list shows a part of the results.

Assay: Confirmatory qHTS assay for inhibitors of Activation Induced Cytidine Deaminase (AID): UDG signals; also: 0% is about no effect
Settings: UDG coupled enzyme activity counter-screen; at 115 µM (top of the series) unless noted
Outline: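 Fluorescence at 560 nm excitation/665 nm emission reports UDG activity, read after NaOH quench of a 4 h room-temperature reaction of DJC20/DJC23 substrates with AID (1 uM, 4/3x) and UDG (2 U/mL, 4/3x); compounds at 7.32 nM - 114 uM final, preincubated 10 min.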
For `Cc1ccc(-c2nc3nc(C)cc(C)n3c2Nc2ccc3c(c2)OCCO3)cc1`, the activity change, negative = inhibition was inactive: -7.65%. For `CCOC(=O)N1CCc2c(sc(NCc3ccc(N(C)C)cc3)c2C(=O)Nc2ccc(OC)cc2)C1`, the activity change, negative = inhibition was inactive: -21.3%. With `CC(C)(C)c1ccc(S(=O)(=O)c2cnc(SCC(=O)Nc3ccc4c(c3)OCCO4)[nH]c2=O)cc1` the activity change, negative = inhibition was inactive: 6.06%. For `CC(C)c1ccc(NC(=O)CSC2=Nc3ccccc3C3=NC(CCC(=O)NCc4ccco4)C(=O)N23)cc1` (stereo unspecified), the activity change, negative = inhibition was inactive: -3.36%. With `COc1ccc(C)cc1NC(=O)COCc1cc(-c2ccc(F)cc2)on1` the activity change, negative = inhibition was inactive: -3.41%. With `Cc1ccc(C)c(Oc2nc3c(c(=O)n(C)c(=O)n3C)n2Cc2ccccc2)c1` the activity change, negative = inhibition was inactive: -10%. For `COc1ccccc1C(=O)Oc1c(Sc2ccccc2)c(C)nn1-c1ccccc1`, the activity change, negative = inhibition was inactive: 10.6%. In the case of `CC(C)CCn1c(Oc2ccccc2F)nc2c1c(=O)n(C)c(=O)n2C`, the activity change, negative = inhibition was inactive: -1.24%. With `Cc1ccc(Cl)cc1N1CCN(C(=O)c2ccc(CS(=O)c3ccccc3)o2)CC1` (stereo unspecified) the activity change, negative = inhibition was inactive: 0.892%. For `Cc1ccc(C)c(N2CCN(C(=O)c3cc(S(=O)(=O)N4CCCCC4)cn3C)CC2)c1`, the activity change, negative = inhibition was inactive: -7.73%. In the case of `Cc1cccc(OCC(=O)N(Cc2cccc(Cl)c2)Cc2ccco2)c1C`, the activity change, negative = inhibition was inactive: 0.566%. With `CCCC(=O)Oc1c(Sc2ccc(Cl)cc2)c(C)nn1-c1ccccc1` the activity change, negative = inhibition was inactive: -2.71%. For `Cc1ccc(C)c(NC(=O)Cn2c(=O)n(Cc3ccco3)c(=O)c3ccc(C(=O)NC4CCCC4)cc32)c1`, the activity change, negative = inhibition was inactive: -1.83%. In the case of `COc1ccc(N2CCN(C(=O)c3nn(C)c4c3CSc3ccccc3-4)CC2)cc1`, the activity change, negative = inhibition was inactive: -14.2%. In the case of `COC(=O)c1c(NC(=O)CCCOc2ccccc2)sc2c1CCC(C)C2` (stereo unspecified), the activity change, negative = inhibition was inactive: -6.06%. In the case of `Cc1ccc(C(=O)c2cn(Cc3ccccc3F)c3cc4c(cc3c2=O)OCO4)cc1`, the activity change, negative = inhibition was inactive: -2.21%. With `CC(C)(C)c1ccc(S(=O)(=O)c2cnc(SCC(=O)Nc3ccc(F)c(Cl)c3)[nH]c2=O)cc1` the activity change, negative = inhibition was inactive: -1.75%. For `CN(C(=O)c1oc(=O)c2ccccc2c1-c1ccccc1)c1cccc(Cl)c1`, the activity change, negative = inhibition was inactive: 0.306%. In the case of `CCN1CCN(CCCNC(=O)c2ccc3c(c2)sc2nc(-c4ccc(C)cc4)cn23)CC1`, the activity change, negative = inhibition was inactive: -1.97%. In the case of `Cc1cccc(-n2ncc(C(=O)NCc3ccco3)c2C2CCN(C(=O)OC(C)(C)C)CC2)c1`, the activity change, negative = inhibition was inactive: -10.2%. In the case of `CCOc1ccc(NC(=O)Cn2c(=O)n(Cc3ccccc3)c(=O)c3c4c(sc32)CN(C(C)=O)CC4)cc1`, the activity change, negative = inhibition was inactive: -6.63%. In the case of `Cc1cccc(C(=O)Nc2sc3c(c2C(=O)O)CCCC3)c1`, the activity change, negative = inhibition was inactive: -2.07%. For `CCOc1ccc(Nc2c(S(=O)(=O)c3ccc(C)cc3)cnc3ccc(OC)cc23)cc1`, the activity change, negative = inhibition was inactive: -6.81%. For `COc1cccc(Nc2cc(-c3ccccc3)nc(C)n2)c1`, the activity change, negative = inhibition was inactive: -0.275%. In the case of `O=c1cc2nc(-c3cccs3)nc(SCCOc3ccc(Cl)cc3)n2[nH]1`, the activity change, negative = inhibition was inactive: 5.95%. In the case of `CCCCCCSc1nc(N)c2c3c(sc2n1)CCCC3C` (stereo unspecified), the activity change, negative = inhibition was inactive: -13.7%. For `CC(C)Oc1ccc(C(=O)NCCc2csc(-c3cccc(F)c3)n2)cc1`, the activity change, negative = inhibition was inactive: 2.66%. For `Cc1cc(OCC(=O)N(Cc2ccc(N(C)C)cc2)C2CCS(=O)(=O)C2)cc(C)c1Cl` (stereo unspecified), the activity change, negative = inhibition was inactive: -8.74%. With `Cc1ccc(C)c(N2CCN(C(=O)c3cc(S(=O)(=O)N4CCC(C)CC4)cn3C)CC2)c1` the activity change, negative = inhibition was inactive: -15.4%. In the case of `COc1ccc(CC(=O)NCC(c2cccs2)S(=O)(=O)c2ccc(Cl)cc2)cc1` (stereo unspecified), the activity change, negative = inhibition was inactive: -11.8%. In the case of `COc1ccc(-c2noc(N3CCC(C(=O)N(C)c4cc(Cl)ccc4OC)CC3)n2)cc1`, the activity change, negative = inhibition was inactive: -3.46%. With `CC1=C(C(=O)Nc2ccccc2)C(c2cc(Br)ccc2F)n2ncc(C(=O)Nc3ccccc3)c2N1` (stereo unspecified) the activity change, negative = inhibition was inactive: -3.33%. With `Cc1ccc(C)c(Cn2nc(-c3cc(C)ccc3C)ccc2=O)c1` the activity change, negative = inhibition was inactive: -10.4%. For `COc1cccc(N2CCN(C(=O)c3cnn(-c4ccc(C)cc4C)c3C3CCN(C(=O)OC(C)(C)C)CC3)CC2)c1`, the activity change, negative = inhibition was inactive: -4.76%. For `CCOC(=O)c1c(Oc2ccc(C(C)=O)cc2)nnc(-c2ccccc2)c1-c1ccccc1`, the activity change, negative = inhibition was inactive: 2.33%. In the case of `CCN(CC)CCCNC(=O)c1ccc2c(Cl)c3c(nc2c1)CCCC3`, the activity change, negative = inhibition was inactive: -1.59%. For `O=C(O)c1ccc2c(c1)N(Cc1ccc(F)cc1Cl)C(=O)c1ccccc1S2`, the activity change, negative = inhibition was inactive: 12.6%. In the case of `CCn1c(SCc2ccc(F)cc2Cl)nc(=O)c2c(C(=O)OC)cc(C3CC3)nc21`, the activity change, negative = inhibition was inactive: -1.22%. For `Cc1ccc(CSc2nc(-c3ccc(C(C)(C)C)cc3)nc3cc(=O)[nH]n23)cc1`, the activity change, negative = inhibition was inactive: -11.4%. In the case of `CCOCCCNC(=O)c1cn(CC)c2ccc(S(=O)(=O)N3CCc4ccccc4C3)cc2c1=O`, the activity change, negative = inhibition was inactive: -2.99%. With `Cc1nc(-n2nc(C)c(CCC(C)C)c2C)sc1C(=O)Nc1cccc(Cl)c1` the activity change, negative = inhibition was inactive: 0.214%.
